Assay results as given in paper PMC5129563.
Positions count from the first letter of the chain named. These are yes or no findings as the source states them, for the method shown. Binding seen in cells or lysates may run through a third protein. For part of these data: Binding can be weak; no strength is given.

What was measured:
[1] = target: T1, ɛ‐sarcoglycan (mouse, endogenous; all isoforms caught by the pan anti‐ɛ‐sarcoglycan antibody) (mouse (endogenous in brain and lung)) (UniProt O70258); assay: co-IP; immunoaffinity purification with the pan anti‐ɛ‐sarcoglycan antibody from mouse brain and lung solubilized in RIPA buffer, Western blot
T1 sequence: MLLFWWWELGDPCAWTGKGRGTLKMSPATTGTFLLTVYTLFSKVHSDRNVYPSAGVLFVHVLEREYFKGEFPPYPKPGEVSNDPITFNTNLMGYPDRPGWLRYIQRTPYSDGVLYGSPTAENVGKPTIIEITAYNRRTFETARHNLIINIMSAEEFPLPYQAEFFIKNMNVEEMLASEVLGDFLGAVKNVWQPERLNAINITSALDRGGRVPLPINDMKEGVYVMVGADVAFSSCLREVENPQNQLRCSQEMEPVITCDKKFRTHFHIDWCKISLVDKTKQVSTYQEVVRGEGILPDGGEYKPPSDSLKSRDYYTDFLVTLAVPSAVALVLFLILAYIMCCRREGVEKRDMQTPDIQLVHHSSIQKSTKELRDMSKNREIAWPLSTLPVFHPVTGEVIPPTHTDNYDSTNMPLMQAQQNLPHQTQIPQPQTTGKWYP

[2] = target: T1, ɛ‐sarcoglycan (mouse, endogenous; all isoforms caught by the pan anti‐ɛ‐sarcoglycan antibody) (mouse (endogenous in brain and lung)); assay: co-IP; immunoaffinity purification with the pan anti‐ɛ‐sarcoglycan antibody from mouse brain and lung solubilized in 1% digitonin, Western blot
[3] = target: T2, ɛ‐sarcoglycan (rat, endogenous; all isoforms caught by the pan antibody esg‐4990) (rat (endogenous in brain and heart)) (UniProt Q6YAT4); assay: co-IP; immunoaffinity purification with esg‐4990 beads from RIPA extracts of rat brain and heart, Western blot of the eluate
T2 sequence: T1 sequence with N216K, H265Q, H267Y, D350N, V397I, T401M, A416T, Q418P, P429Q

| Substance | binding [1] | binding [2] | binding [3] |
| --- | --- | --- | --- |
| dystrophin Dp71 (mouse, endogenous) | no binding (only tissue extracted in RIPA buffer) | binds | – |
| β‐sarcoglycan (rat, endogenous) | – | – | binds |
